Data taken from publication PMC5982827.
Results are given in words; binding and its absence hold for the method and conditions named. Binding seen in cells or lysates may run through a third protein. Some binding calls cover weakened binding; strength is not graded here. For some assays here: Tags and fused reporters may be left off the sequences shown. Blank lines part the entries; values can stand above or below the molecule they belong to.

Protein sequences, listed by entry. Tags and fused reporters are not part of them.
UniProt P32447: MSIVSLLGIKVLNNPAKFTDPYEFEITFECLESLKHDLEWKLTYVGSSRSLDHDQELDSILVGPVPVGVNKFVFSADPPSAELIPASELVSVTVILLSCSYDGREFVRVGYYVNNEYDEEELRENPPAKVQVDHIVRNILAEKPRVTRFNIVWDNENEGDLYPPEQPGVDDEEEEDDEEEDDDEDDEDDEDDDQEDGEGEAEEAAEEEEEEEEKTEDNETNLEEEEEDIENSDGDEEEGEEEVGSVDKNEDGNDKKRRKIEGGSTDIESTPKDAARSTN
UniProt Q12341: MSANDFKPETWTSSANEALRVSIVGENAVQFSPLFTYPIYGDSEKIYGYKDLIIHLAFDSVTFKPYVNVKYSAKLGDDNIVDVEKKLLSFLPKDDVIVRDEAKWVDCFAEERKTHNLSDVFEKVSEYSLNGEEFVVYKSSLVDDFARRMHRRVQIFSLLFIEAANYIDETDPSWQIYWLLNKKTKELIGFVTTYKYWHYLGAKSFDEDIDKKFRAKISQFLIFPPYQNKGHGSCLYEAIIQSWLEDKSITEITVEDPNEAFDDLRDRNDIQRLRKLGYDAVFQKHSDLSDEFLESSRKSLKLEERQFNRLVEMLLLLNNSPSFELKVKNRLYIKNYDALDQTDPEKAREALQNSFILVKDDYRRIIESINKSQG
UniProt Q12373: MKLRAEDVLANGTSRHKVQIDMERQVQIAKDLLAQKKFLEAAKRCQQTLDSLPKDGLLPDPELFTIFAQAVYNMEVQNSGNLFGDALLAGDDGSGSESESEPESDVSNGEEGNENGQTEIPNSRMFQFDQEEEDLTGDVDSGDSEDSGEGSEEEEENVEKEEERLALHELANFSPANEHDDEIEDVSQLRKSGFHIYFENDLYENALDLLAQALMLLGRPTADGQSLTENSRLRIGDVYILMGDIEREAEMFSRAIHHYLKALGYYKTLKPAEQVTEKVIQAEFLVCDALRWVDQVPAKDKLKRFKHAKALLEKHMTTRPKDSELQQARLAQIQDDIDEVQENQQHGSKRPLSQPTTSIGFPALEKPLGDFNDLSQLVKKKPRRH

Key:
[1] = biological target: T1, Spt2-TAP (S. cerevisiae) (UniProt P06843); test: co-IP; Spt2-TAP (or Asf1-TAP as control) immunoprecipitated from cells expressing Hif1, Hat1 or Hat2 with C-terminal 13MYC from the native loci; blot with anti-MYC
T1 sequence: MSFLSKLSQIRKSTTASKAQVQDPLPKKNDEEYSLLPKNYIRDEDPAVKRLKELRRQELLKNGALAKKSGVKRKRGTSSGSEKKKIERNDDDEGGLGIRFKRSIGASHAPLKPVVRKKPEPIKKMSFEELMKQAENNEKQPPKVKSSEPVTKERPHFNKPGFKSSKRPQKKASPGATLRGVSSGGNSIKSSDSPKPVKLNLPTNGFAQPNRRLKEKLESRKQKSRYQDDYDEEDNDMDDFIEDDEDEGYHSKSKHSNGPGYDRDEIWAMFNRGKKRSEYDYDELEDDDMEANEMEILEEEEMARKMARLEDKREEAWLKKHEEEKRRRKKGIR

[2] = biological target: Asf1-TAP (S. cerevisiae) (UniProt P32447); test: as above
[3] = biological target: T2, Hat2-TAP (S. cerevisiae) (UniProt P39984); test: co-IP; TAP-tagged bait (Hat1, Hat2, Asf1 or Spt2) immunoprecipitated from lysates of yeast cells carrying plasmid-borne 12MYC-Hif1 constructs; blots with anti-MYC and anti-TAP; for Asf1 also a one step co-IP with TEV protease elution (Figure 3E)
T2 sequence: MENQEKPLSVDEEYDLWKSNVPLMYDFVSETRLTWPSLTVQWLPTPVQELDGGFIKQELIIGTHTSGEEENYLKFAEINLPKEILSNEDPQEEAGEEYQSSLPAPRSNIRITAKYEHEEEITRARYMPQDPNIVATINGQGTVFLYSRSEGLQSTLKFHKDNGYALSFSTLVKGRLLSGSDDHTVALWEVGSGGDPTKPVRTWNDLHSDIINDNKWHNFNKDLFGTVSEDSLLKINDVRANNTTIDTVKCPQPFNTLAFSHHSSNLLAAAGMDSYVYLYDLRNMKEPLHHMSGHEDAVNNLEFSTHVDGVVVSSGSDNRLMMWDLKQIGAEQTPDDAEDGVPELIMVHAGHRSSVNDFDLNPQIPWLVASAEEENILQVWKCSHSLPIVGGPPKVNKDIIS

[4] = biological target: Hat1-TAP (S. cerevisiae) (UniProt Q12341); test: as above
[5] = biological target: T1, Spt2-TAP (S. cerevisiae); test: as above
[6] = biological target: Asf1-TAP (S. cerevisiae) (UniProt P32447); test: as above

Molecule: Hat1 carrying C-terminal 13MYC epitope tag (from UniProt Q12341 1-374) (enzyme)
- binding [1]: binds

Molecule: Hif1 carrying C-terminal 13MYC epitope tag (from UniProt Q12373 1-385)
- binding [1]: binds
- binding [2]: binds

Results, then the molecule that gave them:

- binding [3]: binds
- binding [4]: binds
- binding [5]: binds
- binding [6]: binds
Molecule: 12MYC-Hif1 full length (F.L.) (from UniProt Q12373 1-385)

- binding [1]: binds
B1: Hat2 carrying C-terminal 13MYC epitope tag (protein, UniProt P39984 1-401)
chain: T2 sequence
